# Assay results from paper PMC7614227, “Structural Basis of Mammalian Respiratory Complex I Inhibition by Medicinal Biguanides” (Science (New York, N.Y.), 2023).
# System: T1, bovine complex I
# T1 construct: Complex I for cryo-EM analyses was prepared by a method adapted from that of Jones et al; tissue C; Humphreys and Sons, Chelmsford, U.K. (abattoir); host or cells: bovine heart mitochondria (two hearts), DDM-solubilized, Q-Sepharose and Superose 6 Increase 10/300
# Test: Cryo-EM of purified complex I with 350 μM IM1092
# Assay type: binding
# Details: for population with clear evidence of IM1092 occupying the Q-channel: 350 μM IM1092
compound,measurement,setting,value
N=C(N=C(N)N)NCCc1ccc(I)c(Cl)c1 [IM1092],imaged protein population disrupted at the ND5/NDUFB4 interface,"350 μM IM1092, all classes",~ 65%
same,population with clear evidence of IM1092 occupying the Q-channel,of the [deactive and slack] population,56-75%
same,population with clear evidence of IM1092 occupying the Q-channel,of the total population,45-60%
